PubChem BioAssay AID504793, Drosophila RNAi Screening Center, 2011
The screen tested about 23,000 reagents; this is a random part of those with a known target gene and a result. In the full data, 62 (0.27%) were called active. 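Calls come from follow-up tests whose scores are not deposited, so confirmed genes may have low counts here; counts are not normalised per plate.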 The raw values are shown without normalisation. The numbers tell different reagents against one gene apart.

Screen: 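Knock-downs allowing continued mitosis even though DNA is damaged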 (primary screen)
Cell system: Drosophila S2R+ cells
Reagent: long dsRNA against Drosophila genes, about 0.25 µg dsRNA per well
Duration: 4 days of dsRNA, then 4 hours of drug before read-out
Conditions: doxorubicin 0.5 µM for 4 hours to cause double-strand breaks, in cells also given a low, harmless dose of dsRNA against nbs to sensitise the assay
Detection: 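Mitotic index as the number of phospho-histone H3-positive cells in each well following doxorubicin, given as raw counts without normalisation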
Scale: mitotic cells: higher = more cells in mitosis, weaker G2 arrest
Rule for the call: 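a call needs confirmation in secondary tests, with other dsRNAs and a check of mitotic timing without damage, not just a high primary count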
Calls: active = confirmed in follow-up tests; inactive = not confirmed

CAH4 (Carbonic anhydrase 4): mitotic cells, replicate 1 = 3; Call = inactive
SIFaR (SIFamide receptor) #1: mitotic cells, replicate 1 = 2; Call = inactive
SIFaR (SIFamide receptor) #2: mitotic cells, replicate 1 = 6; Call = inactive
SMC6 (Structural maintenance of chromosomes 6) #1: mitotic cells, replicate 1 = 7; Call = inactive
SMC6 (Structural maintenance of chromosomes 6) #2: mitotic cells, replicate 1 = 8; Call = inactive
CG31730: mitotic cells, replicate 1 = 9; Call = inactive

2 entries from above, ordered by “mitotic cells, replicate 1”, low to high:
SIFaR (SIFamide receptor) #2: mitotic cells, replicate 1 = 6; Call = inactive
SMC6 (Structural maintenance of chromosomes 6) #1: mitotic cells, replicate 1 = 7; Call = inactive

Further entries follow.
CG4004 #1: mitotic cells, replicate 1 = 6; Call = inactive
CG4004 #2: mitotic cells, replicate 1 = 8; Call = inactive
CG4004 #3: mitotic cells, replicate 1 = 3; Call = inactive
Tps1 (Trehalose-6-phosphate synthase 1) #1: mitotic cells, replicate 1 = 5; Call = inactive
Tps1 (Trehalose-6-phosphate synthase 1) #2: mitotic cells, replicate 1 = 5; Call = inactive
Elp2 (Elongator complex protein 2): mitotic cells, replicate 1 = 8; Call = inactive
CG12133 #1: mitotic cells, replicate 1 = 1; Call = inactive
CG12133 #2: mitotic cells, replicate 1 = 7; Call = inactive
